Measured values published in PubChem BioAssay AID651640 (Broad Institute, 2012).
In all, about 350,000 compounds went through this assay and about 6,000 (1.7%) were called active. Inconclusive results, whose numbers are uncertain, are shown with a selection of clear calls. Cut-off read from the data, not from the text of the source: active = CPE inhibition above about 20% (passing the limit was not always enough); inconclusive = no clear call, values can overlap the other calls; tested in BHK-21 cells.

Test: protection of cells from dengue 2 killing – plate reader, single concentration, primary screen (AID 651640);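 note: 0% = median of neutral control wells and 100% = median of positive control wells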
Conditions: DENV2-infected cells, cytopathic effect rescue, at 9.99 µM, active compounds read high

SMILES	CPE inhibition
CCCC/C=C/[C@H](c1ccccc1)[C@H](CO)Cc1cccnc1	active: 42.4%
C[C@H](CO)N1C[C@H](C)[C@@H](CN(C)Cc2ccncc2)Oc2ncc(C#CC3CCCC3)cc2C1=O	inactive: -5.58%
O=C(CSc1ncnc2c1oc1ccccc12)NC1CCCC1	inconclusive: 34.7%
CCOC(=O)C1=C(O)C(=O)NC(c2ccccc2)=C(OC2CCCCC2)C1	inconclusive: 40%
Cc1cccc(CN(C)C[C@H]2OCc3cnnn3CCCC(=O)N([C@H](C)CO)C[C@H]2C)c1	inconclusive: 25.3%
Cc1cc2c(cc1C)-n1nnnc1C(N(Cc1ccccc1)Cc1ccccc1)C(=O)N2 (stereo unspecified)	inactive: -15.6%
Cc1ccc(Cc2c(-c3ccc(F)cc3)nc3cc(C)ccn23)cc1	inactive: -2.59%
COc1cc(-c2ccc3sc(-c4ccsc4)c(C#CCO)c3c2)cc(OC)c1OC	inconclusive: 72.4%
Cc1ccc(S(=O)(=O)Nc2nnc(C3CCCCC3)s2)cc1	inconclusive: 23.1%
COCCNC(=S)N1CCN(C(c2ccccc2)c2ccccc2)CC1	inconclusive: 73.4%
Nc1ncnc2c1ncn2[C@@H]1O[C@H](CNC(=O)[C@H](N)Cc2cscn2)[C@@H](O)[C@H]1O	inconclusive: 47.5%
O=C(O)CNC(=O)c1ccc(NC(=O)/C(=C/c2cccc([N+](=O)[O-])c2)NC(=O)c2ccco2)cc1	inconclusive: 26.5%
Cc1ccccc1S(=O)(=O)N1CC[C@@H]2[C@H]1c1cc(-c3ccc(C#N)cc3)ccc1N(C)[C@H]2CO	active: 26.5%
COc1cccc(-c2noc(CCC(=O)NCCc3ccccc3)n2)c1	inconclusive: 21.6%
Cc1noc(C)c1NC(=O)Nc1ccc2c(c1)C(=O)N([C@H](C)CO)C[C@H](C)[C@H](CN(C)Cc1ccc(C(=O)Nc3ccccc3N)cc1)O2	active: 22.2%
Cc1ccc(C(O)c2ncc(-c3cccc4ccccc34)[nH]2)cc1F (stereo unspecified)	inactive: -7.81%
COc1ccc(NC(=O)N(C)C[C@H]2Oc3ccc(NS(=O)(=O)c4cn(C)cn4)cc3CC(=O)N([C@@H](C)CO)C[C@H]2C)cc1	inconclusive: 38.1%
C[C@H](CO)N1C[C@H](C)[C@@H](CN(C)S(=O)(=O)c2ccc3c(c2)OCCCO3)OCc2cn(nn2)CCCC1=O	inconclusive: 38.2%
N#C[C@H]1[C@H](c2ccc(-c3cccc(F)c3)cc2)[C@@H](CO)N1S(=O)(=O)c1cccc(F)c1	inactive: -7.03%
C[C@H](CO)N1C[C@H](C)[C@H](CN(C)Cc2ccncc2)Oc2cc(C3=CCCC3)ccc2S1(=O)=O	active: 35.8%
COc1ccc2c3c1OC1CC(O)C=CC31CCN(C)C2 (stereo unspecified)	inconclusive: 27.2%
CCCCC[C@@H](/C=C/C1C(=O)C=C[C@H]1C/C=C\CCCC(=O)OC)OC(C)=O (stereo partly specified)	active: 25.4%
CO[C@H]1CN(C)C(=O)c2cc(NC(=O)c3ccc4c(c3)OCO4)ccc2OC[C@H](C)NC[C@H]1C	inconclusive: 33.3%
Cc1csc(NC(=O)CCCNC(=O)c2ccc(Cl)cc2)n1	inconclusive: 34.5%

SMILES	CPE inhibition
Cc1noc(C)c1NC(=O)N[C@@H]1CC[C@H](CCNC(=O)C2CCOCC2)O[C@@H]1CO	inactive: -3.52%
COc1ccc(OC)c(C2=NOC(C(=O)Nc3c(C)n(C)n(-c4ccccc4)c3=O)C2)c1 (stereo unspecified)	active: 81%
COc1ccc(S(=O)(=O)Nc2ccc3c(c2)C(=O)N([C@H](C)CO)C[C@@H](C)[C@@H](CN(C)S(C)(=O)=O)OCCCC[C@H](C)O3)cc1	inactive: -0.019%
O=C(Nc1cccc(-c2nnc(-c3ccco3)o2)c1)c1ccccc1	inactive: 4.91%
C[C@H]1CN([C@@H](C)CO)C(=O)c2cccc(NS(=O)(=O)c3cn(C)cn3)c2O[C@@H]1CN(C)C(=O)NC1CCCCC1	inconclusive: 21%
CCC(=O)N(C)C[C@@H]1Oc2ncc(C#CC(C)C)cc2C(=O)N([C@H](C)CO)C[C@@H]1C	inconclusive: 35.3%
CCN1CCN(CCc2nc3cc(NC(=O)COc4ccc(Cl)cc4)ccc3n2C)CC1	active: 25.3%
CCNC(=O)C[C@@H]1CC[C@H]2[C@H](COc3ccc(NC(=O)Nc4cccc(F)c4)cc3C(=O)N2C)O1	inconclusive: 27.4%
CCNC(=O)[C@@H]1[C@@H](CO)[C@@H]2Cn3c(ccc(-c4ccncc4)c3=O)[C@@H]2N1Cc1cc(F)ccc1F	inconclusive: 38.2%
Cc1ccc(S(=O)(=O)N(C)C[C@H]2OCCCC[C@@H](C)Oc3ccc(NC(=O)Nc4ccccc4)cc3C(=O)N([C@@H](C)CO)C[C@@H]2C)cc1	inconclusive: 23.6%
CCCNC(=O)N1CCC2(CC1)CN(Cc1ccc(F)cc1)[C@@H](CO)c1[nH]c3cc(OC)ccc3c12	inactive: 10.1%
O=C(COC(=O)c1ccc[nH]c1=O)Nc1ccc(N2CCCCC2)cc1	inactive: 0.82%
Cc1ccc(S(=O)(=O)Cn2nnnc2C(CC(C)C)N2CCN(C)CC2)cc1 (stereo unspecified)	inconclusive: 25.4%
COc1cccc(OC)c1C(=O)Nc1ccc(N2CCN(C(=O)c3cccs3)CC2)cc1	inconclusive: 112%
O=C(c1cccc(F)c1)N1C[C@@H]2[C@H](c3ccccc31)[C@@H](CO)N2C(=O)c1cccc(F)c1	inactive: 8.83%
CCc1ccc(S(=O)(=O)Nc2ccc(O)c3c(=O)cc(-c4ccccc4Cl)oc23)cc1	inactive: 5.65%
CCc1cc(-c2n[nH]c(C)c2-c2nc(C)cs2)c(O)cc1OC	inactive: -6.25%
COc1ccccc1C(=O)N1C[C@@H]2[C@H](c3ccccc31)[C@H](CO)N2C(=O)Cc1ccccc1	inconclusive: 54.2%
O=C(N/N=C/c1c[nH]c2ccccc12)c1cccs1	active: 45.9%
C[C@H]1CCCCO[C@H](CN(C)S(=O)(=O)c2ccc(Cl)cc2)[C@@H](C)CN([C@@H](C)CO)C(=O)c2cc(NC(=O)c3ccncc3)ccc2O1	inconclusive: 34.1%
COCCNC(=O)C1CCCN(Cc2ccc(C)cc2)CC1 (stereo unspecified)	inconclusive: 24.8%
CN(Cc1nc2ccccc2c(=O)[nH]1)C(=O)c1ccc(S(=O)(=O)N2CCCC2)cc1	inconclusive: 81.9%
NC(=O)c1ccsc1NC(=O)COC(=O)c1cc(Cl)ccc1O	inactive: 3.75%
COc1ccc(CN(C)C[C@@H]2OCCCC[C@H](C)Oc3ccc(NS(=O)(=O)c4cccs4)cc3C(=O)N([C@H](C)CO)C[C@@H]2C)cc1	inconclusive: 35.7%

SMILES	CPE inhibition
CC(=O)c1c(C)[nH]c(C(=O)COC(=O)c2cc(S(=O)(=O)N(C)c3ccccc3)ccc2Cl)c1C	inactive: -3.36%
C=CCOc1ccc(/C=N/NC(=O)C(=O)Nc2ccccn2)cc1OC	inconclusive: 50.7%
CC(C)n1nnnc1C1c2ccccc2C(=O)N1CCc1ccc(O)cc1 (stereo unspecified)	inconclusive: 39.2%
O=C(C1CCCCC1)N1CC(=O)N2[C@H](CO)[C@H](c3ccc(C#CCc4ccccc4)cc3)[C@H]2C1	active: 25.1%
COc1cc(C)c(NC(=O)c2cccc(S(=O)(=O)N3CCCC3)c2)cc1OC	inconclusive: 26%
C[C@@H]1CN([C@H](C)CO)C(=O)c2cccc(NC(=O)NC3CCCCC3)c2O[C@@H]1CN(C)C(=O)NC1CCCCC1	inconclusive: 50%
COCCOC(=O)C1=C(C)NC(=O)NC1c1ccc(-c2ccc(F)cc2)o1 (stereo unspecified)	inconclusive: 35%
CN(C)C(=O)C[C@@H]1C=C[C@H](NC(=O)C2CC2)[C@@H](CO)O1	inconclusive: 28.3%
Cc1ccc(S(=O)(=O)N(C)[C@H]2C[C@H]3c4cc(-c5ccc6c(c5)OCO6)ccc4CCN3C[C@H]2[C@H](C)O)cc1	active: 32.2%
CC1CCN(CC(=O)Nc2cc(C(F)(F)F)ccc2Cl)CC1	inconclusive: 43.9%
COc1ccc(C(CC(=O)N2CCN(c3ccccc3)CC2)c2c(OC)cc(OC)c3ccc(=O)oc23)cc1 (stereo unspecified)	inconclusive: 68.5%
CN1C(=O)c2cc(NC(=O)Cc3cccs3)ccc2OC[C@@H]2O[C@H](CC(=O)NCc3ccc(-c4ccccc4)cc3)CC[C@@H]21	inactive: -5.8%
CCCCC[C@H](C)N1C[C@H](COCc2ccccc2)Oc2cc(N3CCC[C@H]3COC)ccc2S1(=O)=O	inconclusive: 54.5%
Cc1cc(C(=O)Nc2ccc3c(c2)C(=O)N(C)[C@@H]2CC[C@@H](CC(=O)O)O[C@@H]2CO3)no1	inconclusive: 27.4%
CCCCCCCC1CC(/C(C)=N/NC(N)=O)OC1=O (stereo unspecified)	inconclusive: 33%
Cc1ccc(S(=O)(=O)c2nc(Cc3ccccc3)oc2N2CCOCC2)cc1	inactive: -1.65%
C[C@H]1CN([C@@H](C)CO)S(=O)(=O)c2ccc(C#Cc3cccnc3)cc2O[C@@H]1CN(C)C(=O)CN(C)C	inconclusive: 21.1%
C[C@H](CO)N1C[C@H](C)[C@@H](CN(C)C(=O)Nc2cc(F)ccc2F)Oc2cc(/C=C/c3ccccc3)ccc2S1(=O)=O	inactive: 0.0255%
Cc1cc(C)c2c(=O)n3c(nc2c1)C(C)NC(=O)c1cccnc1-3 (stereo unspecified)	inconclusive: 29.2%
O=C(Cc1ccccc1)N[C@H]1C=C[C@@H](CC(=O)N2CCCCC2)O[C@@H]1CO	inactive: -3.49%
Cc1nnc(C)n1/N=C/c1ccc(-c2ccccc2Cl)o1	inconclusive: 36.2%
C[C@H]1CN([C@@H](C)CO)C(=O)c2c(c3ccccc3n2C)-c2ccccc2CO[C@H]1CN(C)Cc1cccc(C(F)(F)F)c1	inconclusive: 25.6%
CCC1CN(C(=O)NCc2ccccc2)c2cc(Cl)ccc2O1 (stereo unspecified)	inactive: 5.51%
